Drawing on PubChem BioAssay AID2685 (National Center for Advancing Translational Sciences (NCATS), 2010), this text covers cell number change and AC50 for 38 molecules.

The list shows a part of the results. Further columns of the screen follow, without active or inactive calls. The list favours compounds with an active or inconclusive main result. Words in brackets tell the shape of the fitted curve; partial curves, single points and poor fits give uncertain potencies.

Broadly, the AC50 is the concentration giving half of the maximal activity seen. The low end stands for greater potency, the high end for weaker potency.

The assay in a line: qHTS Assay for Lipid Storage Modulators in Drosophila S3 Cells.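 For cell number change: cells counted by Cell Tracker Red CMTPX staining in the red channel.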 The settings on record: BODIPY lipid droplet fluorescence, 18-24 h; for cell number change: measured here: cell count max response, cells fed with added oleic acid. The gist of the method:
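Drosophila S3 cells loaded with oleic acid (400 uM, as added) and compounds at several concentrations; lipid droplets imaged by 488-nm laser-scanning cytometry, 500–530 nm intensity and object ratio to cell channel. Percent activity normalized to 20 uM Triacsin C.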
In general terms: In qHTS, concentration-response curves come from the screen itself.

Where [1] appears, read: measured here: lipid fluorescence (Fed channel) AC50, cells fed with added oleic acid.
The mark [2] stands for this setting: measured here: cell number channel AC50, cells fed with added oleic acid.

With `CCOC(=O)C1=C(c2ccccc2)NC(=O)NC1c1cc(OC)c(O)c([N+](=O)[O-])c1` (centres undefined), the cell number change was 20.1%. For `CCN(CC)S(=O)(=O)c1ccc(Cl)c(C(=O)NCC2CCCO2)c1` (centres undefined), the cell number change is 1.5%. For the same molecule, the AC50 under setting [1] was 0.0231 µM [falling, full curve, poor fit]. `CCCc1nc(SCC(N)=O)[nH]c(=O)c1CC`: the cell number change is -10.8%. In addition, under setting [1], the AC50 was 2.59 µM [falling, full curve, poor fit].

As to `COc1ccc(CC(=O)NCCC(C)C)cc1S(=O)(=O)N1CCOCC1`, under setting [1], the AC50 was 0.58 µM [rising, full curve, poor fit].

As to `Cc1noc(C)c1S(=O)(=O)Nc1cccc(CO)c1`, the cell number change worked out at 33.5%. Moreover, the half-maximal activity concentration (AC50) under setting [2] is 29.1 µM [rising, single point]. In addition, the AC50 under setting [1] was 29.1 µM [rising, single point]. As for `O=c1oc2c(CN3CCCCC3)c(O)ccc2cc1-c1nc2ccccc2[nH]1`, the cell number change came out at 19.6%. Further, the AC50 under setting [1] was 29.1 µM [rising, single point]. As to `CC(C)OC(=O)c1c(NS(=O)(=O)c2ccccc2)sc2c1CCCC2`, the cell number change amounted to 25.9%. Further, the AC50 under setting [1] was 14.6 µM [rising, partial curve, poor fit]. On to `Cn1nnc2cc(C(=O)N3CCC(c4ccccc4)C3)ccc21` (centres undefined), for which the cell number change was -18.7%. Besides, the half-maximal activity concentration (AC50) under setting [1] was 5.17 µM [falling, partial curve].

As to `CC[C@H](C)[C@H](NC(N)=O)C(=O)OCC(=O)NCc1ccc(Cl)cc1`, the cell number change was -69.4%. For the same molecule, under setting [2], the AC50 was 29.1 µM [falling, single point]. For the same molecule, under setting [1], the AC50 is 29.1 µM [falling, single point]. As to `N#Cc1c(Nc2ccc(F)cc2)sc(C(=O)c2ccccc2)c1N`, the cell number change amounted to 20.2%. As to `Cc1ccc(C(NC(=O)CN2C(=O)NC3(CCCC3)C2=O)c2ccccc2)cc1` (centres undefined), the cell number change is -5.7%. The AC50 under setting [1] was 29.1 µM [falling, single point]. With `Cc1nc2cc(N3CCOCC3)c(NC(=O)C3CC3)cc2c(=O)n1Cc1ccccc1`, the cell number change was 78.5%. Besides, the half-maximal activity concentration (AC50) under setting [2] was 7.31 µM [rising, partial curve].

On to `CCOc1ccc(CCNC(=O)Cn2ccc3cc(S(=O)(=O)N4CCCC4)ccc32)cc1`, for which the cell number change is -2.67%. Further, the AC50 under setting [1] was 4.11 µM [falling, single point].

For `Cc1cc(C)c(S(=O)(=O)/N=C2\C=C(Nc3ccc(C(=O)O)cc3)C(=O)c3ccccc32)c(C)c1`, under setting [1], the AC50 is 0.82 µM [falling, full curve]. Turning to `COc1ccc(-c2nnn(CC(=O)N(CC(=O)NC3CCCC3)c3cccc(C)c3)n2)cc1OC`, the cell number change was determined as 16.4%. Under setting [1], the AC50 is 13 µM [rising, partial curve].

For `COc1ccc(-n2c(SCC(=O)Nc3nccs3)nc3c(c2=O)SC(C)C3)cc1` (centres undefined), the cell number change came to 0.94%. As for `CCN(CC)CCN1C(=O)C(=O)/C(=C(/O)c2c(C)[nH]c(C(=O)OC)c2C)C1c1cccc(OC)c1` (centres undefined), the cell number change is -22.4%. As to `COc1ccc(CNC(=O)Cc2ccc(-c3ccccc3)cc2)cc1OC`, the cell number change turned out to be 16.7%. In addition, the AC50 under setting [1] is 6.51 µM [rising, single point]. As for `COc1ccc(CCNC(=O)C2CCN(C(=O)c3ccc(C(C)(C)C)cc3)CC2)cc1OC`, the cell number change worked out at 4.56%. Further, under setting [1], the AC50 is 29.1 µM [falling, single point]. As to `O=C(c1cccs1)N1CCC(c2nc3c(nnn3Cc3ccccc3Cl)c(=O)[nH]2)CC1`, the cell number change is -9.21%. The AC50 under setting [1] is 5.62 µM [falling, single point]. Regarding `CCCN(CC(=O)Nc1ccc(F)c(F)c1F)C(=O)Cc1ccc(S(=O)(=O)N2CCOCC2)s1`, the cell number change was 30.1%. The half-maximal activity concentration (AC50) under setting [2] is 0.00517 µM [rising, full curve, poor fit]. In addition, under setting [1], the AC50 was 0.00461 µM [rising, full curve, poor fit]. Consider `CCCn1c(SCC(=O)Nc2nc3c(s2)CCCC3)nc2c1c(=O)n(C)c(=O)n2C`, for which the cell number change amounted to 35.3%. In addition, the AC50 under setting [2] is 0.517 µM [rising, full curve]. Besides, the AC50 under setting [1] is 0.411 µM [rising, partial curve, poor fit].

As to `CC(=O)Nc1ccc(S(=O)(=O)Nc2ccccc2C(=O)N2CCCCCC2)cc1`, the cell number change is 6.76%. Regarding `CCOc1ccc(C(C(=O)NCC2CCCO2)N(Cc2ccccc2)C(=O)c2snc(C(N)=O)c2N)cc1` (centres undefined), the cell number change was -17.1%.

Turning to `CCOC(=O)c1nnn(-c2nonc2N)c1CN(C)C1CCCCC1`, the cell number change was -7.73%. Moreover, the AC50 under setting [1] is 16.4 µM [rising, single point]. Turning to `COc1cc(C(=O)OCC(=O)Nc2ccccc2C(=O)NC2CC2)c([N+](=O)[O-])cc1OC`, the cell number change was 23.4%. In addition, the AC50 under setting [1] is 0.146 µM [falling, full curve]. As to `Cc1nc2c(sc(=S)n2Cc2ccco2)c(=O)n1CC(=O)Nc1ccccc1`, the cell number change is 26.6%. Turning to `Cn1c(OCc2ccco2)nc2c1c(=O)n(Cc1ccc(Cl)c(Cl)c1)c(=O)n2C`, the AC50 under setting [2] was 6.51 µM [rising, single point]. In the case of `COc1cc(/C=N/NC(N)=O)cc(Br)c1OCc1ccc(C)cc1`, the cell number change turned out to be 21.6%. Also, the AC50 under setting [2] was 2.91 µM [rising, single point]. Besides, under setting [1], the AC50 is 0.116 µM [rising, full curve, poor fit].

In the case of `O=[N+]([O-])c1ccc(CNc2cccc(Cl)c2)s1`, the cell number change is -6.76%. Under setting [1], the AC50 is 29.1 µM [falling, single point]. For `COc1ccc(-n2c(SCC(=O)N3CCOCC3)nc(O)cc2=O)cc1`, the cell number change came to 3.18%.

As for `CCN(C(=O)CSc1nc(C)nc2sc(C)c(C)c12)C1CCS(=O)(=O)C1` (centres undefined), the cell number change was -8.25%. For the molecule `CC(C)N(C(=O)COC(=O)c1ccc(O)cc1)C(C)C`, the cell number change is -58.9%. Moreover, the AC50 under setting [2] is 32.6 µM [falling, partial curve]. Besides, the AC50 under setting [1] was 25.9 µM [falling, partial curve, poor fit]. `Cc1ccc(NS(=O)(=O)c2ccc(-c3coc(C)n3)cc2)c(C)c1`: the cell number change was -12.8%. Also, the half-maximal activity concentration (AC50) under setting [1] is 0.184 µM [rising, full curve, poor fit]. For the molecule `CCCNCc1cc(Br)ccc1OCC(=O)NCCc1ccccc1`, the cell number change was -10.5%. The AC50 under setting [1] was 0.731 µM [falling, partial curve, poor fit]. `CCC(=O)N1CCCc2cc(S(=O)(=O)N3CCN(c4ccccc4F)CC3)ccc21`: the cell number change is -7.55%. Consider `COc1ccc(CN2CCN(Cc3ccon3)CC2CCO)c(C)c1C` (centres undefined), for which the cell number change was found to be 6.32%. Also, under setting [1], the AC50 is 0.731 µM [falling, full curve, poor fit]. In the case of `COc1cc(NC(=O)C2CCCN(S(=O)(=O)c3cnc[nH]3)C2)cc(OC)c1` (centres undefined), the cell number change is 10.8%. The AC50 under setting [1] is 0.13 µM [rising, full curve, poor fit].
